The test addresses Flag-PD-L1 (UniProt Q9NZQ7). Nature of the test: affinity purification with mass spectrometry; lysates of Flag-PD-L1 transfected H1299 cells, anti-flag affinity beads, extensive washing, silver staining on SDS-PAGE and mass spectrometry.

Chains of the proteins cited; added tags and fusions are not shown. Residues count along the entry.
UniProt Q9NZQ7, residues 19-290: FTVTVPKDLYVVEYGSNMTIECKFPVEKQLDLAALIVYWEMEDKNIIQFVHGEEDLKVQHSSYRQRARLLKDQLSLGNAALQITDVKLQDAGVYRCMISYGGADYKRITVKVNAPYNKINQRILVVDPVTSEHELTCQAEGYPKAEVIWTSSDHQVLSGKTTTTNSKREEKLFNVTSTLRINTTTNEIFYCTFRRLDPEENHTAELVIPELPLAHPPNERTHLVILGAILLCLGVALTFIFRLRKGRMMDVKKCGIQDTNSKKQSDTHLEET
UniProt P45974: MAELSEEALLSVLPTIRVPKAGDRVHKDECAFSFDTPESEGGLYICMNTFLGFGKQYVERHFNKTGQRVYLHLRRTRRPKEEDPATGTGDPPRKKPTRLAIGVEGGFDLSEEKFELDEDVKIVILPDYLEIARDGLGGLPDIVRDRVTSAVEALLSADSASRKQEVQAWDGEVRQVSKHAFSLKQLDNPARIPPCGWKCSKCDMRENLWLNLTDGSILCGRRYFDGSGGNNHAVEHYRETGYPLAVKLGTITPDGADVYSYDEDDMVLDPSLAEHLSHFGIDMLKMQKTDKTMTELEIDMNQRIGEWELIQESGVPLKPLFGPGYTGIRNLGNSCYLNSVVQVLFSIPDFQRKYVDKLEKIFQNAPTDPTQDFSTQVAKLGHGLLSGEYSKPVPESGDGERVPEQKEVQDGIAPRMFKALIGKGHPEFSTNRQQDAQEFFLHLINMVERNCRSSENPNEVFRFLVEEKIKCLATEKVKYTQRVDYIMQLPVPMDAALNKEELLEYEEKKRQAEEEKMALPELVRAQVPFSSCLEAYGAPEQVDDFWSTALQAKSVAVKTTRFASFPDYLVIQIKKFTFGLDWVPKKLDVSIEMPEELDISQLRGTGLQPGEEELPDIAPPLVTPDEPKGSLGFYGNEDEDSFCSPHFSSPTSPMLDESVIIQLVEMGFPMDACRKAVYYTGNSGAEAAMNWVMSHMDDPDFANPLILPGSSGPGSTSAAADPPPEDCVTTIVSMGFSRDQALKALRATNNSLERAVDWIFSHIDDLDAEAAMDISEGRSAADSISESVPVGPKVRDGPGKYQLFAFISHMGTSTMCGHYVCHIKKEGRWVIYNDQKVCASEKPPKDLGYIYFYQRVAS

No constants are given. Whether binding was seen depends on the method and setting. In cells and extracts the contact can be indirect. These calls come from enrichment with a bait or labelling near it, and not all partners need be listed.

“ubiquitin specific peptidase 5 (USP5), endogenous (from UniProt P45974 1-858) (enzyme)”: the binding result is recorded as “binds”.

These data come from PMC8571306.
